No constants are given. Whether binding was seen depends on the method and setting. In cells and extracts the contact can be indirect. Some entries that bind do so weakly or less than the wild type. Tags and fused reporters may be left off the sequences shown.
Legend:
[1] = molecular target: T1, Vav1^GEF− (Vav1 L278Q fused to GFP) (UniProt P15498); experiment: co-IP; Vav1 immunoprecipitated from anti-CD3-stimulated J.Vav1^WT and J.Vav1^GEF− cells (RIPA lysate); blots reprobed with anti-SLP-76 antibodies; non-stimulated cells as control
T1 sequence: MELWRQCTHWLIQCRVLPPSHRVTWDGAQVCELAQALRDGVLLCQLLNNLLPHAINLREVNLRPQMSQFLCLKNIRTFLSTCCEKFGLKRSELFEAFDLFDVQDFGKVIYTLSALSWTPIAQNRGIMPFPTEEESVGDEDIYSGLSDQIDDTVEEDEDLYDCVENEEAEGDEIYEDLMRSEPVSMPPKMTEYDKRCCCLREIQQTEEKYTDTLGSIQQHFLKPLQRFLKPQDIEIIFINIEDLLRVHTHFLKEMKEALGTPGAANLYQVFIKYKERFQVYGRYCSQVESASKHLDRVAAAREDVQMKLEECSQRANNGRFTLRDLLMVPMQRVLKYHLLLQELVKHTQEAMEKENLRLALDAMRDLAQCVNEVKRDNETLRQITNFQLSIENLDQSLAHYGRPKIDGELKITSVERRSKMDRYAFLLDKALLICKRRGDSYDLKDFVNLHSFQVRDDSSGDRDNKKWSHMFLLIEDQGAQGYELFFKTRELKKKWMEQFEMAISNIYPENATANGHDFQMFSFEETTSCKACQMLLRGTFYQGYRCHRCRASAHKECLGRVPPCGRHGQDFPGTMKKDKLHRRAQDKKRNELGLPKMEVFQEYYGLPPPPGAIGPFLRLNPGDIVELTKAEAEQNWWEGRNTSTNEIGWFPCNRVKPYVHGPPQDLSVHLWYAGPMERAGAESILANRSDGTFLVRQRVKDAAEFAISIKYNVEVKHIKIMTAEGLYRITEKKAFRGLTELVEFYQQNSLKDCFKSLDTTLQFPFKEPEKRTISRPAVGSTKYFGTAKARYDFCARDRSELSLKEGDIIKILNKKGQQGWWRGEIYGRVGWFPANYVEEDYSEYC

[2] = molecular target: T2, Vav1-GFP (Vav1^WT) (UniProt P15498); experiment: as above
T2 sequence: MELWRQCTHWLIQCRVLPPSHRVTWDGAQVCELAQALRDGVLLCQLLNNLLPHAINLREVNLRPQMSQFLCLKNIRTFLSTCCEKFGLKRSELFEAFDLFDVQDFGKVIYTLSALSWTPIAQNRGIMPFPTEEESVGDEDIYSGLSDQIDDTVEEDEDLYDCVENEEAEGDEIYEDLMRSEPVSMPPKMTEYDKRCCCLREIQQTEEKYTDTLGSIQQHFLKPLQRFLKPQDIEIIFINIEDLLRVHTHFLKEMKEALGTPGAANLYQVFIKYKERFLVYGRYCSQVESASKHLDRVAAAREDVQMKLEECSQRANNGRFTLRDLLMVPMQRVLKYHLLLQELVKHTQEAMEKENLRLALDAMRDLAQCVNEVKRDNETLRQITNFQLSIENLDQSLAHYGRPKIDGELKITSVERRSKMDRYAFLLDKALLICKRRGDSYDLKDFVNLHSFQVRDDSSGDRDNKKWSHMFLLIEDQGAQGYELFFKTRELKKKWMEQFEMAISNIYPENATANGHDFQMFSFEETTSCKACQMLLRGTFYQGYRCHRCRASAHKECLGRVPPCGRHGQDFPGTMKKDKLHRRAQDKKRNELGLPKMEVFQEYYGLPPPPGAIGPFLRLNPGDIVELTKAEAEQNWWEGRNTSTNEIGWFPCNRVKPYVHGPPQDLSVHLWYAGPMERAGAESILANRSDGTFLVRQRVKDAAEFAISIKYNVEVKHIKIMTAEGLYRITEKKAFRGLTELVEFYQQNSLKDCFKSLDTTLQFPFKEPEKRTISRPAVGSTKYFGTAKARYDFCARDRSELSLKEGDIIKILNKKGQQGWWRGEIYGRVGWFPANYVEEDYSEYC

- binding [1]: binds
- binding [2]: binds
B1: SLP-76 (protein, UniProt Q13094 1-533)
chain: MALRNVPFRSEVLGWDPDSLADYFKKLNYKDCEKAVKKYHIDGARFLNLTENDIQKFPKLRVPILSKLSQEINKNEERRSIFTRKPQVPRFPEETESHEEDNGGWSSFEEDDYESPNDDQDGEDDGDYESPNEEEEAPVEDDADYEPPPSNDEEALQNSILPAKPFPNSNSMYIDRPPSGKTPQQPPVPPQRPMAALPPPPAGRNHSPLPPPQTNHEEPSRSRNHKTAKLPAPSIDRSTKPPLDRSLAPFDREPFTLGKKPPFSDKPSIPAGRSLGEHLPKIQKPPLPPTTERHERSSPLPGKKPPVPKHGWGPDRRENDEDDVHQRPLPQPALLPMSSNTFPSRSTKPSPMNPLPSSHMPGAFSESNSSFPQSASLPPYFSQGPSNRPPIRAEGRNFPLPLPNKPRPPSPAEEENSLNEEWYVSYITRPEAEAALRKINQDGTFLVRDSSKKTTTNPYVLMVLYKDKVYNIQIRYQKESQVYLLGTGLRGKEDFLSVSDIIDYFRKMPLLLIDGKNRGSRYQCTLTHAAGYP

Reference: paper PMC2719804
